# Experimental data taken from PMC6201373.
# How the values were obtained:
# [1] = biological target: Unc‐51‐like kinase 1 (ULK1) (rat (endogenous in neonatal SD rat cardiomyocytes)) (UniProt D3ZMG0); test: co-IP; whole-cell lysates of rat neonatal cardiomyocytes (OGD 4 h; treated with PEDF, AICAR, Compound C, Go6976, shULK1 or mULK1 Δ654-828 as indicated) immunoprecipitated overnight at 4°C with anti-ULK1 antibody, protein A/G agarose beads, washed 3 times with lysis buffer, immunoblot; rabbit normal IgG as negative control
# [2] = biological target: Unc‐51‐like kinase 1 (ULK1) (rat (endogenous in neonatal SD rat cardiomyocytes)) (UniProt D3ZMG0); test: as above; remark: listed apart in the source
molecule,measurement,setting,value
"phospho‐PKCα (p‐PKCα, Ser 657) (from UniProt P05696 1-672) (enzyme)",binding,[1],binds
protein kinase Cα (PKCα) (from UniProt P05696 1-672) (enzyme),binding,[1],binds
"14‐3‐3τ (protein, UniProt P68255 1-245) MEKTELIQKAKLAEQAERYDDMATCMKAVTEQGAELSNEERNLLSVAYKNVVGGRRSAWRVISSIEQKTDTSDKKLQLIKDYREKVESELRSICTTVLELLDKYLIANATNPESKVFYLKMKGDYFRYLAEVACGDDRKQTIENSQGAYQEAFDISKKEMQPTHPIRLGLALNFSVFYYEILNNPELACTLAKTAFDEAIAELDTLNEDSYKDSTLIMQLLRDNLTLWTSDSAGEECDAAEGAEN",binding,[2],binds

# Like-named read-outs stand apart in the source and are kept apart here. These are yes or no findings as the source states them, for the method shown. Binding seen in cells or lysates may run through a third protein. A result given as binding can be weak or reduced; the word gives no strength.
